Reference: PubChem BioAssay AID1347076 (National Center for Advancing Translational Sciences (NCATS), 2019)
“And” between values parts separate entries of the source, which are not always exact repeats. Equal values may be shown once. In all, about 400,000 compounds went through this assay and about 13,000 (3.2%) were called active. Inconclusive results, whose numbers are uncertain, are shown with a selection of clear calls. Calls follow the shape of the dose curve; as a rule, active = well fitted cell-killing curve with a large enough effect; inconclusive = small, poorly fitted or top-dose-only effect, or effect the other way; inactive = flat fitted curve, though single readings scatter. A potency beside an inconclusive call is a rough fit, not a confirmed value.

Assay: qHTS assay for MDR1-selective chemotherapeutics: Primary screen using the drug-selected MDR subline cells KB-V1; also: nearly all actives have a fitted effect of over 60% in size
Settings: KB-V1 MDR cells viability, CellTiter-Glo, 72 h; activity change, negative = cytotoxicity: at 46.1 µM (top of the series)
Summary of the method: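 KB-V1, DMEM (no phenol red) + 10% FBS; cpd pin-transferred, titration series; 72 h, 37 degrees C; CellTiter-Glo, luminescence. Data normalized, curve-fit.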
% is scaled to controls: 0 for no effect and ±100 for the full control effect; potency is read from the fitted curve at half-maximal effect.

| SMILES | Potency | activity change, negative = cytotoxicity |
| --- | --- | --- |
| CCOC(=O)c1ccc(N2C(=O)C=CC2=O)cc1 | inactive |  |
| CCN(Cc1ccccc1)S(=O)(=O)c1ccc(C(=O)N(CCCN(C)C)c2nc3c(C)c(C)ccc3s2)cc1 | inconclusive: 29.1 µM [cytotoxic, single point] |  |
| CCOc1ccccc1OCCOCCOc1ccccc1[N+](=O)[O-] | inconclusive: 11.6 µM [cytotoxic, partial curve] |  |
| CCC(C)NS(=O)(=O)c1ccc(OCC(=O)NCc2ccc3c(c2)OCO3)cc1 (stereo not given) | inactive |  |
| O=C(NN=Cc1cccc([N+](=O)[O-])c1)c1cc(-c2cccnc2)nc2ccccc12 | inactive |  |
| N#C/C(=C\c1ccc(-c2ccc(C(=O)O)cc2)o1)C(=O)Nc1ccccc1C(=O)O | inconclusive: 16.4 µM [rising, partial curve] |  |
| N#C/C(=C\C1CC=CCC1)c1nc2ccccc2[nH]1 (stereo not given) | active: 13 µM |  |
| O=C1NC(=NCc2ccccc2)S/C1=C\c1ccccc1 | inconclusive: 29.1 µM [cytotoxic, single point] |  |
| Cc1cccn2c(=O)c(C(=O)NC3CCCCC3)c(O)nc12 | inconclusive: 23.1 µM [cytotoxic, single point] |  |
| Cc1ccc(C(=O)N2CCN(c3ccc(F)cc3)CC2)cc1S(=O)(=O)N1CCCCC1 | inconclusive: 10.3 µM [cytotoxic, partial curve] |  |
| CCOC(=O)c1sc(=S)n(CC)c1N | inconclusive: 29.1 µM [cytotoxic, single point] |  |
| CCC1CCc2sc(C(=O)N(C)CC(=O)Nc3ccc(N4CCOCC4)cc3)cc2C1 (stereo not given) | inconclusive: 3.26 µM [cytotoxic, full curve, poor fit] |  |
| CC(=O)N1CCC(C(=O)NCCOc2ccc(C)cc2)CC1 | inconclusive: 29.1 µM [rising, single point] |  |
| O=C(c1cc2nc(-c3ccco3)cc(C(F)(F)F)n2n1)N1CCN(c2ccccc2)CC1 | inconclusive: 20.6 µM [cytotoxic, single point] |  |
| CC(C)(C)C1CCC(CN2CCC(CN3C(=O)C(=O)NC[C@@H]3Cc3ccccc3)CC2)CC1 (stereo not given in full) | inactive |  |
| O=C(NCc1ccccc1Cl)c1cc2c(s1)-c1ccc(Cl)cc1SC2 | inactive |  |
| Cc1cccc(NS(=O)(=O)c2c(C)nc3sccn3c2=O)c1C | inconclusive: 29.1 µM [rising, single point] |  |
| COc1cccc(CNCCNC(=O)c2nonc2N)c1 | inactive |  |
| CCCCCCn1c(NCC)nc2c1c(=O)n(C)c(=O)n2C | inconclusive: 14.6 µM [cytotoxic, partial curve] |  |
| COc1cc2ccccc2cc1C(=O)Nc1ccccc1N1CCCC1 | inconclusive: 7.31 µM [cytotoxic, partial curve] |  |
| CCOc1ccc(N2CC(C(=O)NCc3ccco3)CC2=O)cc1 (stereo not given) | inconclusive: 0.0058 µM [rising, full curve, poor fit] |  |
| O=C1[C@H](Cc2ccccc2)NCCCC[C@H](c2ccc(Cl)cc2)N1Cc1ccccc1 | inconclusive: 14.6 µM [cytotoxic, single point] and inconclusive: 18.4 µM [cytotoxic, single point] |  |
| Cc1ccc(C)c(Nc2nn3c(=O)c4ccc(C(=O)NCc5cccnc5)cc4nc3s2)c1 | inconclusive: 10.3 µM [rising, partial curve, poor fit] |  |
| c1ccc(CN2CCC(CNc3ncnc4ccccc34)C2)cc1 (stereo not given) | inconclusive: 18.4 µM [cytotoxic, partial curve, poor fit] |  |

| SMILES | Potency | activity change, negative = cytotoxicity |
| --- | --- | --- |
| CN(C)CCNC(=O)c1ccc(Cl)c2cc3ccccc3nc12 | active: 2.06 µM |  |
| O=C(CCC(=O)Nc1cccc2ccccc12)N/N=C/c1ccco1 | inconclusive: 7.31 µM [rising, partial curve] |  |
| CCOc1ccc(-n2cc(-c3ccccc3)c3c(N4CCOCC4)ncnc32)cc1 | inactive |  |
| COc1ccc2c(c1)OC[C@H]1[C@H]2N2C(=O)CN(Cc3ccc(F)cc3)C(=O)[C@@]2(C)[C@H]1c1ccccc1 | inconclusive: 29.1 µM [cytotoxic, partial curve, poor fit] |  |
| COC(=O)CC1(c2ccc(OC)cc2)C(=O)c2ccccc2C1=O | inconclusive: 29.1 µM [cytotoxic, single point] |  |
| O=C(Cn1nnc(-c2ccc3c(c2)OCO3)n1)N1CCOCC1 | inconclusive: 3.66 µM [rising, partial curve, poor fit] |  |
| O=C(CSc1nnc(NC2CCCCC2)s1)N1CCOCC1 | inactive |  |
| CC(=O)Nc1ccc(Oc2cncc(Cl)c2)nc1 | inactive |  |
| Cc1cc(NC(=O)CSc2nc(-c3ccco3)cc(C(F)(F)F)n2)n(-c2ccccc2)n1 | active: 4.11 µM |  |
| CC1C(=O)N2CCCc3cc(NC(=O)c4ccccc4Br)cc1c32 (stereo not given) | inconclusive: 16.4 µM [cytotoxic, single point] |  |
| COc1cccc(-n2c(=O)c3c(C)c(C)sc3n(CC(=O)NCc3ccc(C)cc3)c2=O)c1 | inactive |  |
| COc1ccc(CN(C)C(=O)[C@H](Cc2ccccc2)NC(=O)c2ccco2)c(OC)c1 | inconclusive: 29.1 µM [cytotoxic, single point] |  |
| Cc1cc2oc(=O)cc(CN(C)Cc3ccccc3)c2cc1C(C)C |  | inconclusive: -33.4% [cytotoxic] |
| Cc1[nH]c(=O)[nH]c(=O)c1CSCC(=O)OCC(=O)Nc1ccccn1 | inconclusive: 29.1 µM [rising, single point] |  |
| Cc1ccc(SCc2nc(-c3cccnc3)no2)cc1 | inconclusive: 20.6 µM [cytotoxic, partial curve, poor fit] |  |
| CCCCCCCNC(=O)C1(CC2CC(c3cccc(Br)c3)=NO2)CCN(C(=O)C2(C)CC2)CC1 (stereo not given) | inconclusive: 32.6 µM [cytotoxic, single point] |  |
| CCn1c(CCc2ccccc2)n[nH]c1=S | inconclusive: 32.6 µM [cytotoxic, single point] |  |
| CCc1nnc(NC(=O)CCc2c[nH]c3ccccc23)s1 | inactive |  |
| C=C(C(=O)c1ccccc1)C(c1ccccc1)C(C)C(=O)c1ccccc1 (stereo not given) | inconclusive: 29.1 µM [cytotoxic, single point] |  |
| COc1ccccc1CNC(=O)c1ccc(CS(=O)(=O)c2ccc(C)cc2)o1 | inactive |  |
| O=C(N/N=C/c1cn(-c2cccs2)nc1-c1ccccc1)c1ccccc1O | inconclusive: 3.26 µM [cytotoxic, full curve, poor fit] |  |
| Cc1ccc(N2CCN(/N=C/c3sccc3C)CC2)cc1 | inconclusive: 18.4 µM [cytotoxic, single point] |  |
| CCCNC(=O)C1CC(=O)N(c2ccc(OCc3ccc(Cl)cc3)cc2)C1 (stereo not given) | inconclusive: 23.1 µM [cytotoxic, partial curve] |  |
| Cc1ccccc1NC(=O)c1ccc2c(c1)c(C)c(C)n2Cc1ccccc1 | inconclusive: 5.8 µM [cytotoxic, full curve] |  |

Five records picked at random from those above, as already listed:

| SMILES | Potency | activity change, negative = cytotoxicity |
| --- | --- | --- |
| Cc1ccccc1NC(=O)c1ccc2c(c1)c(C)c(C)n2Cc1ccccc1 | inconclusive: 5.8 µM [cytotoxic, full curve] |  |
| CCCNC(=O)C1CC(=O)N(c2ccc(OCc3ccc(Cl)cc3)cc2)C1 (stereo not given) | inconclusive: 23.1 µM [cytotoxic, partial curve] |  |
| CCn1c(CCc2ccccc2)n[nH]c1=S | inconclusive: 32.6 µM [cytotoxic, single point] |  |
| COc1ccc(CN(C)C(=O)[C@H](Cc2ccccc2)NC(=O)c2ccco2)c(OC)c1 | inconclusive: 29.1 µM [cytotoxic, single point] |  |
| COC(=O)CC1(c2ccc(OC)cc2)C(=O)c2ccccc2C1=O | inconclusive: 29.1 µM [cytotoxic, single point] |  |

Continuation.

| SMILES | Potency | activity change, negative = cytotoxicity |
| --- | --- | --- |
| NC(=O)CC[C@H](NC(=O)c1ccc(F)cc1)C(=O)N1CCN(Cc2ccc3c(c2)OCO3)CC1 | inactive |  |
| Cc1cc(O)c2c(c1)C(=O)c1cc(O)cc(O)c1C2=O | inconclusive: 18.4 µM [cytotoxic, single point] |  |
| CCOC(=O)c1c(-c2ccccc2)oc2ccc(NS(=O)(=O)c3cc(C)c(C)cc3C)cc12 | inactive |  |
| O=C(O)c1ccc(CNC(=S)Nc2ccccc2)cc1 | inactive |  |
| COc1cccc(C2(C)NC(=O)N(CC(=O)c3cc(C)n(C4CC4)c3C)C2=O)c1 (stereo not given) | active: 16.4 µM |  |
| Cc1ccc(CNC(=O)C2CC(=O)OC23CCCC3)c(C)c1 (stereo not given) | inconclusive: 23.1 µM [cytotoxic, partial curve] |  |
| CC(C)(C)NC(=S)Nc1cccc(C(F)(F)F)c1 | inactive |  |
| COc1ccc(CNc2ncnc3cc(OC)c(OC)cc23)cc1OC | inconclusive: 18.4 µM [cytotoxic, single point] |  |
| COc1cc(OC)cc(C2=Cc3ccccc3C(CC(C)=O)N2c2ccc(C#CC3(N)CCCCC3)cc2)c1 (stereo not given) | inconclusive: 29.1 µM [cytotoxic, single point] |  |
| Cc1cccc(CN2CCC(CNC(=O)Nc3ccc(F)c(Cl)c3)CC2)c1 | inconclusive: 29.1 µM [cytotoxic, single point] |  |
| CC1(C)c2[nH]c3ccccc3c2C[C@@H]2C(=O)N(c3cc(F)ccc3F)C(=O)N21 | inconclusive: 11.6 µM [cytotoxic, partial curve] |  |
| CCN(C(=O)c1ccco1)c1nc(-c2ccc(OC)cc2)cs1 | inactive |  |
| COc1ccc(NC(=O)c2oc3ccc(S(=O)(=O)N4CCCCC4)cc3c2C)cc1 | active: 6.51 µM |  |
| O=C(NCCc1ccccc1)c1ccc(CS(=O)(=O)Cc2ccccc2F)o1 | active: 14.6 µM |  |
| CC(C)(C)OC(=O)CNC(=O)c1[nH]cnc1C(=O)Nc1ccc(CNC(=O)OC(C)(C)C)cc1 | inconclusive: 23.1 µM [cytotoxic, single point] |  |
| CCc1ccc(-n2nc(C)c3c(C)cc(=O)n(Cc4nc(-c5ccccc5)oc4C)c32)cc1 | inactive |  |
| Cc1nc(N2CCN(C)CC2)c2cc(-c3ccccc3)sc2n1 | inactive |  |
| O=C(Nc1ccc(N2CCOCC2)cc1)c1cccc2ccccc12 | inconclusive: 29.1 µM [cytotoxic, single point] |  |
| Cc1ccc(NC(=O)c2cc(=O)c3ccccc3o2)c(C)c1 | inconclusive: 11.6 µM [cytotoxic, partial curve, poor fit] |  |
| Cc1ccc(CNC(=S)NC2CCC(C(C)(C)C)CC2)cc1 (stereo not given) | inactive |  |
| Cc1ccnc(N2CCC(C(=O)NC3CCCCCC3)CC2)n1 | active: 16.4 µM |  |
| CCCOC(=O)c1c(NC(=O)c2nc3ncccn3n2)sc(C(N)=O)c1C | inconclusive: 18.4 µM [rising, single point] |  |
